Experimental findings from PubChem BioAssay AID330 (DTP/NCI, 2004) are described below.

The list does not hold the whole screen: it gathers tests that were run many times, whatever their T/C, doses with no T/C, and many T/C values between a quarter and a half above the control. Further doses and runs are listed elsewhere. T/C: endpoint of the treated group in % of that of the vehicle group. Some entries give survivors of the animals treated and no T/C: the source files T/C as zero there, which appears to mark a toxic dose or a test without result, not a measured value. Some survivor counts are full or nearly so, which does not show that the dose was tolerated: the source hardly ever lists a survival T/C far under the control, and the zero likely stands for such cases as well. Survivors were counted at the toxicity check, usually on the fifth day, unless a day is given; later deaths do not show. Schedule codes are those of the source, taken here to give the interval after Q, in days (D) or hours (H), and the number of doses after X. For survival time, the PubChem record calls one and a half times the control and up active, and a quarter to a half above the control has no call in these data; cut-offs in other NCI protocols can differ. Some T/C values carry the count of animals alive at the toxicity check (mostly the fifth day); where none is given, no animal had died by that day. Some entries hold several experiments; the values are given in rising order.

In this assay the test system is P388 leukemia ip, CD2F1 mice, survival T/C. The assay is described as follows: NCI In Vivo Anticancer Drug Screen. Data for tumor model P388 Leukemia (intraperitoneal) in CD2F1 (CDF1) mice. Conditions: T/C endpoint: median survival time, higher T/C = longer survival.
[1] abbreviates: dose: 200.0 mg/kg/injection, schedule: Q01DX005 (ip), vehicle: saline with Tween-80.
Setting [2] is: dose: 200.0 mg/kg/injection, schedule: Q01DX009 (ip), vehicle: Klucel (hydroxypropylcellulose) (HPC).
[3] abbreviates: dose: 200.0 mg/kg/injection, schedule: Q01DX009 (ip), vehicle: saline.
[4] abbreviates: dose: 240.0 mg/kg/injection, schedule: Q01DX005 (ip), vehicle: Klucel (hydroxypropylcellulose) (HPC).
Setting [5] is: dose: 200.0 mg/kg/injection, schedule: Q01DX005 (ip), vehicle: Klucel (hydroxypropylcellulose) (HPC).

For `CCOC(=O)C(=C(SC)SC)[n+]1ccc(C)cc1`, the survivor count runs as follows: (dose: 25.0 mg/kg/injection, schedule: Q04DX002 (ip), vehicle: saline with Tween-80) 2 of 6; (dose: 50.0 mg/kg/injection, schedule: Q04DX002 (ip), vehicle: saline with Tween-80) 0 of 6.
In the case of `C/C(=N\NC(=S)N(C)C)c1cnccn1`, the survivor count is, setting by setting: (dose: 100.0 mg/kg/injection, schedule: Q01DX005 (ip), vehicle: saline with Tween-80) 2 of 6; under setting [1], 4 of 6.
As for `CCC(=O)NC(Cc1ccccc1F)C(=O)O` (configuration not stated), the survivor count (dose: 100.0 mg/kg/injection, schedule: Q01DX009 (ip), vehicle: saline) is 5 of 6.
Regarding `O=C(O)/C=C/C(=O)Nc1ccc(Cl)c(Cl)c1`, the T/C (dose: 50.0 mg/kg/injection, schedule: Q01DX009 (ip), vehicle: Klucel (hydroxypropylcellulose) (HPC)) is listed as 97, 119, 125, 133 % of control; the T/C (dose: 100.0 mg/kg/injection, schedule: Q01DX009 (ip), vehicle: Klucel (hydroxypropylcellulose) (HPC)) was 106, 120, 127, 137 % of control [5 of 6 alive]; the T/C under setting [2] was 101, 125 [5 of 6 alive], 132 % of control. For the same molecule, the survivor count is listed as 6 of 6 under setting [2] and 5 of 6 (dose: 400.0 mg/kg/injection, schedule: Q01DX009 (ip), vehicle: Klucel (hydroxypropylcellulose) (HPC)).
`CCC[CH2][Sn]1([CH2]CCC)[O]C2C(CO)OC(n3ccc(N)nc3=O)C2[O]1` (configuration not stated): the T/C is 139 % of control (dose: 0.19 mg/kg/injection, schedule: Q01DX009 (ip), vehicle: other); 126 and 132 % of control (dose: 0.39 mg/kg/injection, schedule: Q01DX009 (ip), vehicle: other); 129 and 132 % of control (dose: 0.78 mg/kg/injection, schedule: Q01DX009 (ip), vehicle: other); 126 % of control (dose: 1.3 mg/kg/injection, schedule: Q01DX005 (ip), vehicle: Klucel (hydroxypropylcellulose) (HPC)); 133 % of control (dose: 2.0 mg/kg/injection, schedule: Q01DX005 (ip), vehicle: Klucel (hydroxypropylcellulose) (HPC)); 133 % of control [9 of 10 alive] (dose: 2.2 mg/kg/injection, schedule: Q03HX015 (ip), vehicle: Klucel (hydroxypropylcellulose) (HPC)). The T/C by setting is: (dose: 3.0 mg/kg/injection, schedule: Q01DX005 (ip), vehicle: Klucel (hydroxypropylcellulose) (HPC)) 128 % of control; (dose: 4.5 mg/kg/injection, schedule: Q01DX005 (ip), vehicle: Klucel (hydroxypropylcellulose) (HPC)) 125 and 127 % of control; (dose: 6.7 mg/kg/injection, schedule: Q01DX005 (ip), vehicle: Klucel (hydroxypropylcellulose) (HPC)) 127 % of control [9 of 10 alive]. Further, the survivor count is, setting by setting: (dose: 3.12 mg/kg/injection, schedule: Q01DX009 (ip), vehicle: other) 0 of 6; (dose: 3.3 mg/kg/injection, schedule: Q03HX015 (ip), vehicle: Klucel (hydroxypropylcellulose) (HPC)) 8 of 10; (dose: 5.0 mg/kg/injection, schedule: Q03HX015 (ip), vehicle: Klucel (hydroxypropylcellulose) (HPC)) 1 of 10; (dose: 6.25 mg/kg/injection, schedule: Q01DX009 (ip), vehicle: other) 6 of 6; (dose: 10.0 mg/kg/injection, schedule: Q01DX005 (ip), vehicle: Klucel (hydroxypropylcellulose) (HPC)) 7 of 10; (dose: 12.5 mg/kg/injection, schedule: Q01DX009 (ip), vehicle: other) 0 of 6. Besides, the survivor count (dose: 15.0 mg/kg/injection, schedule: Q01DX005 (ip), vehicle: Klucel (hydroxypropylcellulose) (HPC)) is 3 of 10 and the survivor count (dose: 25.0 mg/kg/injection, schedule: Q01DX009 (ip), vehicle: other) is recorded as 0 of 6.
Consider `CCN(CC)CCN(CC)c1ccccc1`, for which the survivor count under setting [1] was 0 of 5.
On to `CN1CCN(c2ccncc2S(=O)(=O)N2CCCC2)CC1`, for which the survivor count under setting [3] was 2 of 6.
With `CC1(O)Cc2c(O)c3c(c(O)c2CC1O)C(=O)C=CC3=O` (configuration not stated), the survivor count (dose: 50.0 mg/kg/injection, schedule: Q04DX003 (ip), vehicle: distilled water + Tween-80) is 0 of 6; the survivor count (dose: 100.0 mg/kg/injection, schedule: Q04DX003 (ip), vehicle: distilled water + Tween-80) is 0 of 6; the survivor count (dose: 200.0 mg/kg/injection, schedule: Q04DX003 (ip), vehicle: distilled water + Tween-80) is listed as 0 of 6.
In the case of `N=C(N)c1ccc(OCCCCOc2ccc(N)cc2)cc1`, the survivor count under setting [4] is listed as 0 of 6.
For the molecule `CNC(=O)SC1=NS(=O)(=O)c2ccc(Cl)cc2N1`, the survivor count under setting [4] is recorded as 0 of 6.
With `COc1cc2cc(c1Cl)N(C)C(=O)C[C@H](OC(=O)[C@H](C)N(C)C(=O)CC(C)C)[C@]1(C)O[C@H]1[C@H](C)[C@@H]1C[C@@](O)(NC(=O)O1)[C@H](OC)C=C/C=C(\C)C2`, the T/C runs as follows: (dose: 0.8 micrograms/kg/injection, schedule: Q01DX009 (ip), vehicle: saline) 130 % of control; (dose: 1.6 micrograms/kg/injection, schedule: Q01DX009 (ip), vehicle: saline) 135 % of control; (dose: 3.1 micrograms/kg/injection, schedule: Q01DX009 (ip), vehicle: saline + alcohol) 144 % of control; (dose: 3.1 micrograms/kg/injection, schedule: Q01DX009 (ip), vehicle: saline) 145 % of control; (dose: 6.3 micrograms/kg/injection, schedule: Q01DX009 (ip), vehicle: saline) 145 % of control. In addition, the survivor count is given as 9 of 10 (dose: 50.0 micrograms/kg/injection, schedule: Q01DX009 (ip), vehicle: saline + alcohol); 5 of 10 (dose: 100.0 micrograms/kg/injection, schedule: Q01DX009 (ip), vehicle: saline + alcohol); 1 of 10 (dose: 200.0 micrograms/kg/injection, schedule: Q01DX009 (ip), vehicle: saline + alcohol).
Consider `Nc1cccc(S(=O)(=O)Nc2ncc(Cl)cn2)c1.[Ag]`, for which, under setting [3], the survivor count is reported as 0 of 6.
For `CCCCCN1C(=O)C2C3CCC(O3)C2C1=O` (configuration not stated), the survivor count under setting [5] was 0 of 6.
On to `Cc1cccc2nc(-c3ccccn3)n(CCc3ccccn3)c12`, for which, under setting [5], the survivor count is 3 of 6.
Consider `O=Cc1c(-c2ccc(-c3ccccc3)cc2)nc2n1CCS2`, for which, where the note is “dose: 400.0 mg/kg/injection, schedule: Q01DX001 (ip), vehicle: Klucel (hydroxypropylcellulose) (HPC)”, the survivor count was 6 of 6.
With `COc1ccc(/C=C2\SC(=S)N(C3CC3)C2=O)cc1OC`, the survivor count under setting [5] is reported as 5 of 5.
With `Cc1ccnc(NS(=O)(=O)c2ccc(N=Nc3nc4[nH]c(N)nc(=S)c4[nH]3)cc2)n1`, the T/C is, setting by setting: (dose: 0.39 mg/kg/injection, schedule: Q01DX009 (ip), vehicle: saline with Tween-80) 126 % of control; (dose: 0.78 mg/kg/injection, schedule: Q01DX009 (ip), vehicle: saline with Tween-80) 135 % of control; (dose: 1.56 mg/kg/injection, schedule: Q01DX009 (ip), vehicle: saline with Tween-80) 149 % of control; (dose: 3.12 mg/kg/injection, schedule: Q01DX009 (ip), vehicle: saline with Tween-80) 133 % of control.
As for `CS/N=C(\c1ccccc1)N(C)C`, the survivor count (dose: 30.0 mg/kg/injection, schedule: Q01DX005 (ip), vehicle: Klucel (hydroxypropylcellulose) (HPC)) is listed as 0 of 6; the survivor count (dose: 60.0 mg/kg/injection, schedule: Q01DX005 (ip), vehicle: Klucel (hydroxypropylcellulose) (HPC)) is listed as 0 of 6; the survivor count (dose: 120.0 mg/kg/injection, schedule: Q01DX005 (ip), vehicle: Klucel (hydroxypropylcellulose) (HPC)) was 0 of 6; the survivor count under setting [4] is 0 of 6.
With `CC(N)(Cc1ccc(O)c(O)c1)C(=O)O` (configuration not stated), under setting [3], the T/C was 126 % of control.
As for `COc1cccc(OC)c1OCCN`, under setting [3], the survivor count is reported as 0 of 6.
